The name of at least one read-out is uncertain.
Key:
Format in all cases: cell-based
COR-L105 = assay: CellTiter-Glo proliferation assay, COR-L105; conditions: COR-L105, 5 days
Experimental: (§1) The BCL-xL degrader compounds were tested against two endogenous cancer cell lines: • COR-L105: ECACC No. 92031918 cultured in RPMI-1640+10% FBS • NCI-H1650: (ATCC No. CRL-5883 cultured in RPMI-1640+10% FBS
(§2) The ability of the BCL-xL degrader low molecular weight compounds to inhibit cell proliferation and survival was assessed using the Promega CellTiter-Glo® proliferation assay.
(§3) Cell lines were cultured in media that is optimal for their growth at 5% CO2, 37° C. in a tissue culture incubator. Prior to seeding for the proliferation assay, the cells were split at least 2 days before the assay to ensure optimal growth density. […] Cell viability and cell density were determined using a cell counter (Vi-Cell XR Cell Viability Analyzer, Beckman Coulter). […]
(§4) For COR-L105 plates, cell viability was assessed through the addition of 25 μL of CellTiter Glo® (Promega, cat #G7573), a reagent which lyses cells and measures total adenosine triphosphate (ATP) content. Plates were incubated at room temperature for 10 minutes to stabilize luminescent signals prior to reading with a luminescence reader (EnVision Multilabel Plate Reader, PerkinElmer). For NCI-H1650 plates, cell viability was assessed through the addition of 40 μL of CellTiter Glo® 3D Cell Viability Assay substrate (Promega, cat #G9681), a reagent which lyses cells and measures total adenosine triphosphate (ATP) content. […]

The chains behind the UniProt entries cited, without tags or fusion partners.
UniProt Q07817, whole entry: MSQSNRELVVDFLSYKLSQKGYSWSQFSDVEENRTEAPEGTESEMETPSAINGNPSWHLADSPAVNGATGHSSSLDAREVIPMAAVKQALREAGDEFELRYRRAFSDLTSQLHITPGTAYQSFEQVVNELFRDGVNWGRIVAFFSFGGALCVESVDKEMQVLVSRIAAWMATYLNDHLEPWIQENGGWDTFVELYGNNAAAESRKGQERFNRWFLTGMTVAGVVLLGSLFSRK

NCI-H1650 = assay: CellTiter-Glo 3D proliferation assay, NCI-H1650 spheroids; conditions: 5 days
Experimental: as §1, §2, §3, §4

endogenous BCL-xL = biological target: T1, endogenous BCL-xL (Homo sapiens, UniProt Q07817); assay: Degradation of endogenous BCL-xL in COR-L105 (ProteinSimple Jess); conditions: COR-L105, dose 300 nM, 24 hours
T1 construct: endogenous in cells; host or cells: COR-L105 (ECACC No. 92031918); NCI-H1650 (ATCC No. CRL-5883)
Experimental: The BCL-xL degrader low molecular weight compounds were tested against two endogenous cancer cell lines: • COR-L105: ECACC No. 92031918 cultured in RPMI-1640+10% FBS • NCI-H1650: (ATCC No. CRL-5883 cultured in RPMI-1640+10% FBS
The ability of the BCL-xL degrader low molecular weight compounds to degrade endogenous BCL-xL was assessed using the ProteinSimple 2-40 kDa Jess Separation Module.
Cell lines were cultured in media that is optimal for their growth at 5% CO2, 37° C. in a tissue culture incubator. Prior to seeding for the degradation assay, the cells were split at least 2 days before the assay to ensure optimal growth density. On the day of seeding, adherent cells were lifted off tissue culture flasks using 0.25% trypsin. Cell viability and cell density were determined using a cell counter (Vi-Cell XR Cell Viability Analyzer, Beckman Coulter). Cells with higher than 85% viability were seeded for the assay.
The COR-L105 and the NCI-H1650 cell line were seeded in 6-well clear TC-treated multiple well plates (Costar® cat. #3516). Cells were seeded at a density of 2,000,000 cells per well in 2.5 mL of standard growth media. Plates were incubated at 5% CO2, 37° C. overnight in a tissue culture incubator. On the day of dosing, BCL-xL degrader low molecular weight compounds and a BCL-xL inhibitor control were prepared at 6× in standard growth media. The prepared drug treatments were then added to the cells resulting in a final concentration of 100-300 nM and a final volume of 3.0 mL per well. A control well of untreated cells was also included in the study. Each drug concentration was tested in singlet. Plates were incubated at 5% CO2, 37° C. for 24 hours in a tissue culture incubator. […]
Protein was quantified using a Pierce™ BCA Protein Assay Kit (ThermoFisher, cat #23225) following the manufacturer's instructions. […] A SpectraMax M Series Multi-Mode Microplate Reader was used to measure the absorbance at 562 nm. […] Only values that fell within the range of the standard curve were accepted for quantification. […]

Row | Compound | COR-L105 Span (max) (COR-L105) | NCI-H1650 Span (Amax) (NCI-H1650) | % BCL-xL vs. Untreated, COR-L105 (endogenous BCL-xL)
1 | Cc1ncsc1-c1ccc(CNC(=O)[C@@H]2CC(O)CN2C(=O)C(NC(=O)CCCCCCC(=O)N2CCN(CCOC34CC5(C)CC(C)(CC(Cn6ncc(-c7ccc(N8CCCc9c8nnc(Nc8nc%10ccccc%10s8)c9C)nc7C(=O)O)c6C)(C5)C3)C4)CC2)C(C)(C)C)cc1 (stereo in doubt) [Example 24, 6-[3-(1,3-benzothiazol-2-ylamino)-4-methyl-6,7-dihydro-5H-pyrido[2,3-c]pyridazin-8-yl]-3-[1-[[3-[2-[4-[8-[[(1S)-1-[(2S,4R)-4-hydroxy-2-[[4-(4-methylthiazol-5-yl)phenyl]methylcarbamoyl]pyrrolidine-1-carbonyl]-2,2-dimethyl-propyl]amino]-8-oxo-octanoyl]piperazin-1-yl]ethoxy]-5,7-dimethyl-1-adamantyl]methyl]-5-methyl-pyrazol-4-yl]pyridine-2-carboxylic acid] | 104.3 | 83.85 | –
2 | Cc1ncsc1-c1ccc([C@H](C)NC(=O)[C@@H]2C[C@@H](O)CN2C(=O)[C@@H](NC(=O)CCCC(=O)N2CCN(CC#Cc3ccc(OCCCc4sc(N5CCCc6c5nnc(Nc5nc7ccccc7s5)c6C)nc4C(=O)O)c(F)c3)CC2)C(C)(C)C)cc1 [Example 35, 2-(3-(benzo[d]thiazol-2-ylamino)-4-methyl-6,7-dihydropyrido [2,3-c]pyridazin-8(5H)-yl)-5-(3-(2-fluoro-4-(3-(4-(5-(((S)-1-((2S,4R)-4-hydroxy-2-(((S)-1-(4-(4-methylthiazol-5-yl)phenyl)ethyl)carbamoyl)pyrrolidin-1-yl)-3,3-dimethyl-1-oxobutan-2-yl)amino)-5-oxopentanoyl)piperazin-1-yl)prop-1-yn-1-yl)phenoxy)propyl)thiazole-4-carboxylic acid] | – | – | 108.82%
3 | Cc1ncsc1-c1ccc([C@H](C)NC(=O)[C@@H]2C[C@@H](O)CN2C(=O)[C@@H](NC(=O)CN(C)CC(=O)N2CCN(CC#Cc3ccc(OCCCc4sc(N5CCCc6c5nnc(Nc5nc7ccccc7s5)c6C)nc4C(=O)O)c(F)c3)CC2)C(C)(C)C)cc1 [Example 36, 2-(3-(benzo[d]thiazol-2-ylamino)-4-methyl-6,7-dihydropyrido [2,3-c]pyridazin-8(5H)-yl)-5-(3-(2-fluoro-4-(3-(4-(N-(2-(((S)-1-((2S,4R)-4-hydroxy-2-(((S)-1-(4-(4-methylthiazol-5-yl)phenyl)ethyl)carbamoyl)pyrrolidin-1-yl)-3,3-dimethyl-1-oxobutan-2-yl)amino)-2-oxoethyl)-N-methylglycyl)piperazin-1-yl)prop-1-yn-1-yl)phenoxy)propyl) thiazole-4-carboxylic acid] | – | – | 105.51%
4 | Cc1ncsc1-c1ccc([C@H](C)NC(=O)[C@@H]2C[C@@H](O)CN2C(=O)[C@@H](NC(=O)CCC(=O)N2CCN(CCOC34CC5(C)CC(C)(CC(Cn6ncc(-c7ccc(N8CCCc9c8nnc(Nc8nc%10ccccc%10s8)c9C)nc7C(=O)O)c6C)(C5)C3)C4)CC2)C(C)(C)C)cc1 [Example 49, 6-(3-(benzo[d]thiazol-2-ylamino)-4-methyl-6,7-dihydropyrido [2,3-c]pyridazin-8(5H)-yl)-3-(1-(((1r,3s,5R,7S)-3-(2-(4-(4-(((S)-1-((2S,4R)-4-hydroxy-2-(((S)-1-(4-(4-methylthiazol-5-yl)phenyl)ethyl)carbamoyl)pyrrolidin-1-yl)-3,3-dimethyl-1-oxobutan-2-yl)amino)-4-oxobutanoyl)piperazin-1-yl)ethoxy)-5,7-dimethyladamantan-1-yl)methyl)-5-methyl-1H-pyrazol-4-yl)picolinic acid] | – | – | 93.55%
